Test results published in patent US20030022205A1.
Results are given in words; binding and its absence hold for the method and conditions named. In cells and extracts the contact can be indirect. Some binding calls cover weakened binding; strength is not graded here. Where a sequence is shown, tags or fusion partners need not be part of it.

The chains behind the UniProt entries cited, without tags or fusion partners.
UniProt P04775: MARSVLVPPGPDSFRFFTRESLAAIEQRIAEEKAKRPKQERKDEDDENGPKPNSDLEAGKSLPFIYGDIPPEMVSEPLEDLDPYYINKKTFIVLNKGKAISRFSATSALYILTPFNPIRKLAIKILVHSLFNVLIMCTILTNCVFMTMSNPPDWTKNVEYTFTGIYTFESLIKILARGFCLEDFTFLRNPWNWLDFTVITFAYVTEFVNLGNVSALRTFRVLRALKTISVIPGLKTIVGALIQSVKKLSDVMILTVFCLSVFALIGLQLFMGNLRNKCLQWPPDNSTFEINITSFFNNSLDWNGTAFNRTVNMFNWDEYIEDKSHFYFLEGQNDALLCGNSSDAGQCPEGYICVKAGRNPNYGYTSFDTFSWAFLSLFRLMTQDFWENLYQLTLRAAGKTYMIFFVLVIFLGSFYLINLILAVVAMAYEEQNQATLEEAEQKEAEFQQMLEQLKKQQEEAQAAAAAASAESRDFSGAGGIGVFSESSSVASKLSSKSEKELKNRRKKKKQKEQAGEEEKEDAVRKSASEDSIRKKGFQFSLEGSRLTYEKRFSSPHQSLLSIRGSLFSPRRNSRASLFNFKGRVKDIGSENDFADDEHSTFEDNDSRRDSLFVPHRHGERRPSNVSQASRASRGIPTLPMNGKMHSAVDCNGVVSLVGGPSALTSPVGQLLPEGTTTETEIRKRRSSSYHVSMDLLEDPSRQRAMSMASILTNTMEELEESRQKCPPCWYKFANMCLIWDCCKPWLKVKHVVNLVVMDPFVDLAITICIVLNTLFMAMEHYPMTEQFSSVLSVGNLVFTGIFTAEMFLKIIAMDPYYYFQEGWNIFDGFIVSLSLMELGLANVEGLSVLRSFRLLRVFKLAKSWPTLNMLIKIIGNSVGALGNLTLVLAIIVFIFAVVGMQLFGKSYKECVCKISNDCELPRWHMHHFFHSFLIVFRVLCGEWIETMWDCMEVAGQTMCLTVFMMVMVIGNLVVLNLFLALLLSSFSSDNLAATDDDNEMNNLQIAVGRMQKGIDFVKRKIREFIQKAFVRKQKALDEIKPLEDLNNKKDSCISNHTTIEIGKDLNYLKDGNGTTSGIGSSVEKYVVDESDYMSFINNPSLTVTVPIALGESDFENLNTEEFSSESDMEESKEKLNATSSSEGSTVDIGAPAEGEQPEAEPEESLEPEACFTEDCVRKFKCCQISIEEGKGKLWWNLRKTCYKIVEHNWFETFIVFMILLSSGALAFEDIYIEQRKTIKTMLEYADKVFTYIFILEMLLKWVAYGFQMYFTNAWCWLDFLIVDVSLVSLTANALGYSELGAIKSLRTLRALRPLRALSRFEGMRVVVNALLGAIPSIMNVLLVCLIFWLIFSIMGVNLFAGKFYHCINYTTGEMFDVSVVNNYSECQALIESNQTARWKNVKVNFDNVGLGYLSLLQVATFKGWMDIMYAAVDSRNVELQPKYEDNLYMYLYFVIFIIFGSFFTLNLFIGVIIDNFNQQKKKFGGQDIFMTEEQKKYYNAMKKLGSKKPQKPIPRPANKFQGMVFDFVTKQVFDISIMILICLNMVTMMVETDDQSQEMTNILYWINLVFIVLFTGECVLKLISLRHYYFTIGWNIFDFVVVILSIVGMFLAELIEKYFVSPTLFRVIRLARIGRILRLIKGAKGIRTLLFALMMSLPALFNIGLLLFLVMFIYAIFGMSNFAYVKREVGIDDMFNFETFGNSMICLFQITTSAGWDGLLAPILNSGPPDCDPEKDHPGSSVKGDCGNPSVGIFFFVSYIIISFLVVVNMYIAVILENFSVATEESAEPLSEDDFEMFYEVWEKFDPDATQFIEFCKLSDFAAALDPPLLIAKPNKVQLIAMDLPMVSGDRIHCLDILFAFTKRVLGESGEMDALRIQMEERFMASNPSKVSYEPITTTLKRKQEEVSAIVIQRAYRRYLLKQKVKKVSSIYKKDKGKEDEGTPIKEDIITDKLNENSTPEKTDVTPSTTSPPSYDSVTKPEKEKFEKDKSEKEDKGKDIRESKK

Key:
[1] = molecular target: untagged rNav1.2 α subunit (UniProt P04775); assay: co-immunoprecipitation from cotransfected tsA-201 cells with SP20, SDS-PAGE, anti-HA11 immunoblot
[2] = molecular target: HA-tagged rNav1.2 α subunit (UniProt P04775); assay: as above

binding [1]: binds | binding [2]: binds
B1: HA-tagged β4 subunit (98359, sodium channel beta-4 subunit) (protein, not shown: small tags and cut ends)
chain: LEVSVGKATDIYAVNGTEILLPCTFSSCFGFEDLHFRWTYNSSDAFKILIEGTVKNEKSDPKVTLKDDDRITLVGSTKEKMNNISIVLRDLEFSDTGKYTCHVKNPKENNLQHHATIFLQVVDRLEEVDNTVTLIILAVVGGVIGLLILILLIKKLIIFILKKTREKKKECLVSSSGNDNTENGLPGSKAEEKPPSKV
